Assay results published in publication PMC8169668, “Discovery of a cooperative mode of inhibiting RIPK1 kinase” (Cell Discovery, 2021).
Results are given in words; binding and its absence hold for the method and conditions named. Binding seen in cells or lysates may run through a third protein. Some entries that bind do so weakly or less than the wild type. One block for each binder: values may come before it.

Sequences of proteins named here, by UniProt entry; tags and fusion partners are left off. Residues count along the entry.
UniProt P01375, residues 77-233: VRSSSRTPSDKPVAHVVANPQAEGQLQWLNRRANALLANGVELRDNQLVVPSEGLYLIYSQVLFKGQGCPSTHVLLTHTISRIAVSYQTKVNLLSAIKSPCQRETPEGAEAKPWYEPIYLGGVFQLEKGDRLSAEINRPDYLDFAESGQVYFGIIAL

Target: Flag-TNFα (UniProt P01375)
Assay: co-IP; L929 cells given 100 ng/mL Flag-TNFα for the indicated times, with or without 30 min pretreatment with 10 μM Nec-1s or Nec-34; lysed in 0.5% Nonidet P-40 buffer; anti-Flag antibody-conjugated agarose; western blot; only the target purified

- binding: binds
B1: Sharpin, mouse (protein, UniProt Q91WA6 1-380)
chain: MSPPAGGAAVAADPASPVVLLAVHAAVRPLGAGQDAEAQPRKLQLIADPERPGRFRLGLLGTEPGAVSLEWPLEAICYTVRGPNQHELQPPPGGPGTFSVHFLDPEEAQQWAALVRDATAEGQNGSGSPAPAPAPAMCPISPPCSSMAQIPKATQPEVDLPQSSGNFKKEELATRLSQAIAGGDEKAAAQVAAVLAQHHVALNVQLMEAWFPPGPIRLQVTVEDATSVLSSSSSAHVSLKIHPHCSIAALQDQVFSEFGFPPAVQRWVIGRCLCMPERSLASYGVSQDGDPAFLYLLSAPREVSGQSLQNSKMDRKLGLFPQSLGLPHDLQPSSSSLPSPSQPGWSCPSCTFINASNRPGCEMCSTQRPCAWDPLAAAST

- binding: binds
B2: TRADD, mouse (protein, UniProt Q3U0V2 1-310)
chain: MAAGQNGHEEWVGSAYLFLESAVDKVILSEAYTDPKKKVAIYKALQTALSESGDSSDVLQILKIHCSDPQLIVQLRFCGRVLCGRFLQAYREGALRTALQRCMAPALAQEALRLQLELRAGAEQLDSWLTDEERCLNYILAQKPDRLRDEELAELEDELCKLTCDCTGQGGAIQVASAGSKFPVSSPTEEKPLPAACQTFLFHGQLVVNRPLTLQDQQTFARSVGLKWRRVGRSLQRNCRALRDPALDSLAYEYERDGLYEQAFQLLRRFMQAEGRRATLQRLVEALEENELTSLAEDLLGQAEPDGGLA
